Test results from publication PMC9022196 (Pharmacology Research & Perspectives, 2022).

Assay: ATPLite cytotoxicity assay in LMH cells
Details: chicken, 18–24 h, presence of 250 μM DFO

## Cc1cc(NS(=O)(=O)c2ccc(N)cc2)no1 [sulfamethoxazole]
  CC50: 528 µM
